Test results reported in patent publication US9163030B2 (priority 2012, dated 2015).
Some entries share one result that the patent states for a list of compounds.

Amino acid sequences for entries named in this document (tags omitted).
UniProt P35372, whole entry: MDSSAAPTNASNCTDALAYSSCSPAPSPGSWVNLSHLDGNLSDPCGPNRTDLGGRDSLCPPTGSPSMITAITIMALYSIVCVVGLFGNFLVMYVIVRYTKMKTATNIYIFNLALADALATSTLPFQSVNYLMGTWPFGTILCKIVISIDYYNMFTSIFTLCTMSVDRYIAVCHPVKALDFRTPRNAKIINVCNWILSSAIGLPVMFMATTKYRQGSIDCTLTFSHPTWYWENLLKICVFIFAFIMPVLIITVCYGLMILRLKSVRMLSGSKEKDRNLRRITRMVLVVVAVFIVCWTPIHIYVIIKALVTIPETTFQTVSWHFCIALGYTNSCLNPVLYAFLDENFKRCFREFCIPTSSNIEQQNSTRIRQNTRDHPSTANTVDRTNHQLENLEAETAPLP

Molecular target: T1, MOR (Homo sapiens, UniProt P35372)
T1 construct: expressed in transfected cells; host or cells: CHO (hMOR-CHO)
Test: [35S]GTP-γ-S binding assay, hMOR-CHO cells
Format: biochemical
Settings: normalized to stimulation by DAMGO

## CN1CCC23c4c5ccc(O)c4OC2c2ncc(-c4ccc(Cl)cc4)cc2CC3(OC(=O)Cc2ccccc2)C1C5 (stereo not drawn) [Compound 18e, 5′-(4-Chlorophenyl)-6,7-didehydro-4,5α-epoxy-3-hydroxy-17-methyl-14-(phenylacetoxy)pyrido[2′,3′:6,7]morphinan]
  agonist activity MOR Emax: > 100%
